Measurements reported in PubChem BioAssay AID1224831 (NIAID, 2016).

Assay: 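Retesting screen hits on the TLR4-driven TNF response with six separate siRNAs each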 (follow-up of hits)
Cells: human THP-1 B5 monocytic leukaemia cells carrying a TNF promoter luciferase reporter, made macrophage-like with PMA
Reagent: single siRNA against human genes, 50 nM
Duration: about 68 h of knock-down, then 4 h LPS
Challenge: LPS (Salmonella minnesota, TLR-grade) at 10 ng/ml for 4 h; PMA 5 ng/ml present during knock-down
Detection: 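Firefly to renilla luciferase ratio of a TNF promoter reporter after 4 h LPS, scaled to plate median, turned into robust z-score, averaged over replicates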
Direction: TNF reporter z-score: higher = stronger LPS-induced TNF reporter signal; z-score, median over gene's siRNAs: higher = stronger TNF reporter signal across the gene's siRNAs
Active means: 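Two-sided call: reduced or raised TNF reporter signal counts as active once mean z reaches about -1 or below, or about 1.5 or above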
Meaning of the calls: active = changed TNF reporter (either direction); inactive = little change
In all, the deposit lists about 3,500 reagents; this is a part drawn at random. In the full data, 731 (21%) are marked active. 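Active means either lowered or raised reporter signal; the gene-median score did not drive the per-siRNA calls.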 Unmarked entries are inactive. Reagents against one gene are numbered here.

The opening 4 records as a preview:
Target gene | reagent | TNF reporter z-score, replicate mean | z-score, median over gene's siRNAs
BRI3BP | 1 | 0.26 | -0.325
BRI3BP | 2 | -0.42 | -0.325
BRI3BP | 3 | -0.15 | -0.325
BRI3BP | 4 | -0.51 | -0.325

The listing, from the first entry:
Target gene | reagent | TNF reporter z-score, replicate mean | z-score, median over gene's siRNAs
BRI3BP | 1 | 0.26 | -0.325
BRI3BP | 2 | -0.42 | -0.325
BRI3BP | 3 | -0.15 | -0.325
BRI3BP | 4 | -0.51 | -0.325
BRI3BP | 5 | -0.23 | -0.325
BRI3BP | 6 | -0.79 | -0.325
MAD2L2 | 1 | -0.59 | -0.315
MAD2L2 | 2 | -0.91 | -0.315
MAD2L2 | 3 | 0.94 | -0.315
MAD2L2 | 4 | -0.29 | -0.315
MAD2L2 | 5 | -0.29 | -0.315
MAD2L2 | 6 | -0.34 | -0.315
FOXK1 | 1 | -1.31 (active) | 0.27
FOXK1 | 2 | 0.1 | 0.27
FOXK1 | 3 | 1.49 | 0.27
FOXK1 | 4 | 0.92 | 0.27
FOXK1 | 5 | 0.44 | 0.27
FOXK1 | 6 | -0.04 | 0.27
BTRC | 1 | -0.55 | -0.46
BTRC | 2 | 0.26 | -0.46
BTRC | 3 | -0.49 | -0.46
BTRC | 4 | -0.43 | -0.46
BTRC | 5 | 0.47 | -0.46
BTRC | 6 | -1.27 (active) | -0.46
MRPS35 | 1 | -1.31 (active) | -0.17
MRPS35 | 2 | -0.93 | -0.17
MRPS35 | 3 | 0.56 | -0.17
MRPS35 | 4 | -0.13 | -0.17
MRPS35 | 5 | 0.95 | -0.17
MRPS35 | 6 | -0.21 | -0.17
PLPP1 | 1 | 0.43 | 0.21
PLPP1 | 2 | -0.19 | 0.21
PLPP1 | 3 | 0.52 | 0.21
PLPP1 | 4 | -0.5 | 0.21
PLPP1 | 5 | 0.03 | 0.21
PLPP1 | 6 | 0.39 | 0.21
ARCN1 | 1 | -1.05 (active) | -1.03
ARCN1 | 2 | -1.8 (active) | -1.03
ARCN1 | 3 | -1.02 (active) | -1.03
ARCN1 | 4 | 0.29 | -1.03
ARCN1 | 5 | -0.42 | -1.03
ARCN1 | 6 | -1.25 (active) | -1.03
UBXN2A | 1 | 0.07 | 0.395
UBXN2A | 2 | -0.24 | 0.395
UBXN2A | 3 | 1.51 (active) | 0.395
UBXN2A | 4 | 0.44 | 0.395
UBXN2A | 5 | 0.35 | 0.395
UBXN2A | 6 | 0.7 | 0.395
MTA2 | 1 | 0.08 | -0.27
MTA2 | 2 | -0.29 | -0.27
MTA2 | 3 | -0.25 | -0.27
MTA2 | 4 | -1.57 (active) | -0.27
MTA2 | 5 | -1.53 (active) | -0.27
MTA2 | 6 | 1.95 (active) | -0.27
MRC1 | 1 | 1.76 (active) | -0.3
MRC1 | 2 | -0.37 | -0.3
MRC1 | 3 | -0.59 | -0.3
MRC1 | 4 | -0.34 | -0.3
MRC1 | 5 | 2.95 (active) | -0.3
MRC1 | 6 | -0.26 | -0.3
CT45A3 | 1 | 0.34 | -0.035
CT45A3 | 2 | -0.63 | -0.035
CT45A3 | 3 | -0.4 | -0.035
CT45A3 | 4 | -0.6 | -0.035
CT45A3 | 5 | 0.33 | -0.035
CT45A3 | 6 | 5.16 (active) | -0.035
STIMATE | 1 | -0.26 | 0.235
STIMATE | 2 | 0.49 | 0.235
STIMATE | 3 | 0.43 | 0.235
STIMATE | 4 | 0.04 | 0.235
STIMATE | 5 | -1.07 (active) | 0.235
STIMATE | 6 | 1.37 | 0.235
MIDEAS | 1 | -1.95 (active) | -1.77
MIDEAS | 2 | -1.95 (active) | -1.77
MIDEAS | 3 | -2.12 (active) | -1.77
MIDEAS | 4 | -1.6 (active) | -1.77
MIDEAS | 5 | -0.01 | -1.77
MIDEAS | 6 | -0.48 | -1.77
ATP6V0E1 | 1 | -0.45 | -0.6
ATP6V0E1 | 2 | -1.04 (active) | -0.6
ATP6V0E1 | 3 | -0.92 | -0.6
ATP6V0E1 | 4 | -0.43 | -0.6
ATP6V0E1 | 5 | -0.47 | -0.6
ATP6V0E1 | 6 | -0.73 | -0.6
